PubChem BioAssay AID1508597, Cure First | 2020

- Aim: 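Survival screen with siRNA in ovarian cancer cells derived from patients, with or without rucaparib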 (primary screen)
- System: human ovarian carcinoma lines grown from tumours: OCI-P5x (papillary serous) and OCI-C5x (clear cell)
- Knock-down reagent: siRNA pool against human genes, 1.25 pmol siRNA per well
- Timing: 72 h or 96 h, depending on the cell culture
- Conditions: rucaparib 20 µM (about IC30) or vehicle, present until read-out
- Measured: 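Luminescent ATP-based viability assay read 72 or 96 h after transfection, depending on culture, given as normalised percent viability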
- Reading the numbers: viability, normalised: higher = more viable cells remaining
- Call rule: 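a well counts as a hit if its normalised viability is under 80 percent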
- Meaning of the calls: active = viability under 80%; inactive = viability 80% or more
Shown is an unselected part of about 2,100 reagents. 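Calls flag viability under 80% in either arm, not effects specific to rucaparib; the reference for percent is not stated.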 Reagent sequences are not shown. Not given: the 100% reference.

target | rucaparib or vehicle | cell line | technical replicate | viability, normalised (%) | activity call
MYBL2 | Rucaparib | OCI-C5x (clear cell) | 1 | 51.6 | active
MYBL2 | Rucaparib | OCI-C5x (clear cell) | 2 | 42.7 | active
MYBL2 | Rucaparib | OCI-C5x (clear cell) | 3 | 39.9 | active
MYBL2 | Rucaparib | OCI-P5x (serous) | 1 | 44.4 | active
MYBL2 | Rucaparib | OCI-P5x (serous) | 2 | 49.8 | active
MYBL2 | Rucaparib | OCI-P5x (serous) | 3 | 53.9 | active
MYBL2 | Vehicle | OCI-C5x (clear cell) | 1 | 42.9 | active
MYBL2 | Vehicle | OCI-C5x (clear cell) | 2 | 40.4 | active
MYBL2 | Vehicle | OCI-C5x (clear cell) | 3 | 58.9 | active
MYBL2 | Vehicle | OCI-P5x (serous) | 1 | 51.3 | active
MYBL2 | Vehicle | OCI-P5x (serous) | 2 | 53.6 | active
MYBL2 | Vehicle | OCI-P5x (serous) | 3 | 58.8 | active
PGK1 | Rucaparib | OCI-C5x (clear cell) | 1 | 45.7 | active
PGK1 | Rucaparib | OCI-C5x (clear cell) | 2 | 48.9 | active
PGK1 | Rucaparib | OCI-C5x (clear cell) | 3 | 43.6 | active
PGK1 | Rucaparib | OCI-P5x (serous) | 1 | 67.8 | active
PGK1 | Rucaparib | OCI-P5x (serous) | 2 | 61.4 | active
PGK1 | Rucaparib | OCI-P5x (serous) | 3 | 73.9 | active
PGK1 | Vehicle | OCI-C5x (clear cell) | 1 | 51.3 | active
PGK1 | Vehicle | OCI-C5x (clear cell) | 2 | 56.3 | active
PGK1 | Vehicle | OCI-C5x (clear cell) | 3 | 49.1 | active
PGK1 | Vehicle | OCI-P5x (serous) | 1 | 49.4 | active
PGK1 | Vehicle | OCI-P5x (serous) | 2 | 61.6 | active
PGK1 | Vehicle | OCI-P5x (serous) | 3 | 58.5 | active

2 consecutive records already listed, for reference:
target | rucaparib or vehicle | cell line | technical replicate | viability, normalised (%) | activity call
PGK1 | Vehicle | OCI-P5x (serous) | 1 | 49.4 | active
PGK1 | Vehicle | OCI-P5x (serous) | 2 | 61.6 | active
